Laboratory results reported in EP1207391A1, “METHOD FOR SCREENING TARGETING DDS PREPARATION” (Ajinomoto Co., Inc., priority 1999, dated 2001).
At least one read-out could not be matched to a standard name with certainty.

Target: T1, asialoglycoprotein receptor (ASGP-R) (Mus musculus, UniProt P24721+P34927)
T1 construct: The liver parenchymal cells (in 4 ml Falcon tube, 0.6 - 1.0 × 10^6/0.5 ml in ice bath); endogenous in cells; host or cells: freshly isolated mouse liver parenchymal cells (C57BL/6) in suspension
T1 sequence (P34927 1-284): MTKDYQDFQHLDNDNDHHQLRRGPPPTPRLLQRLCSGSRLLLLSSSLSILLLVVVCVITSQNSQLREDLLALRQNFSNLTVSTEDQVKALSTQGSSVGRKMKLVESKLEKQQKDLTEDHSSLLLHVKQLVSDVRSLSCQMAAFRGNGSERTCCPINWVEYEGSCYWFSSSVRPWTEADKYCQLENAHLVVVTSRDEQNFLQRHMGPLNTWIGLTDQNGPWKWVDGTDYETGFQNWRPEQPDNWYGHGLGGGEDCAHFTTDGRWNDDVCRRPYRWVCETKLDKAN
T1 sequence (P24721 1-301): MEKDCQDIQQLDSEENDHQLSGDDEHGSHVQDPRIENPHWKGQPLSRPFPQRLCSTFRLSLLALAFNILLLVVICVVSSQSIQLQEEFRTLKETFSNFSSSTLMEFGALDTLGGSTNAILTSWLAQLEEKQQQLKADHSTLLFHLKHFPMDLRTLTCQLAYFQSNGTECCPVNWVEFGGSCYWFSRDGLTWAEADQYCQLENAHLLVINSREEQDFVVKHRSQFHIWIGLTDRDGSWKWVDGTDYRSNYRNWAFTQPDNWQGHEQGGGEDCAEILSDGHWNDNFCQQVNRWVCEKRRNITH
Test: Binding inhibition experiment of 125I-ASOR to mouse liver cells (Example 8, method of Biessen et al.)
Method: Among these ligands, we have first examined two types of ligands for asialoglycoprotein receptor on hepatocytes, i.e. the three-branched galactose ligand [(Gal)3] of the following formula: [drawing 5] and the three-branched N-acetylgalactosamine ligand [(GalNAc)3] of the following formula: [drawing 6] and their binding forms to IL-2. At first, the Kd value, which is an index of the binding affinity to ASGP-R, was calculated. Table 1,
Binding inhibition experiments of ASOR to mouse liver cells using each ligand were performed according to a method of Biessen, et al. [Biessen, E.A.L. et al., J. Biol. Chem., 271(45): 28024-28030 (1996)]. […]
The mixture was centrifuged at 50G for 1 minute, discarded the supernatant solution, added D-PBS containing 2% BSA and stirred, then again centrifuged at 50G for 1 minute, and discarded the supernatant medium. This procedure was repeated again and the medium was measured by γ-counter.
Thereafter, 0.1 N NaOH containing 10% SDS 1 ml was added thereto, and the protein concentration was measured by Lowry method using the protein assay kit (Biorad Inc.).
As a result, depending on the increase in the added concentration of (GalNAc)3 and (Gal)3, […] was dissociated with almost monophasic manner. Data of dissociation obtained by three repeated experiments were analyzed using non-linear single site model to calculate the binding inhibition constant (Ki). […]

SMILES: NCCCCCC(=O)NC(CCC(=O)NCCOCCOCCO[C@@H]1O[C@H](CO)[C@H](O)[C@H](O)[C@H]1O)C(=O)NC(CCC(=O)NCCOCCOCCO[C@@H]1O[C@H](CO)[C@H](O)[C@H](O)[C@H]1O)C(=O)NCCOCCOCCO[C@@H]1O[C@H](CO)[C@H](O)[C@H](O)[C@H]1O (stereo partly shown) [(Gal)3, three-branched galactose ligand]
- Ki value, times larger than that of ASOR: about 50000 times
